Laboratory results: paper PMC4031084, “The Phytochrome B/Phytochrome C Heterodimer Is Necessary for Phytochrome C-Mediated Responses in Rice Seedlings” (PLoS ONE, 2014)
No constants are given. Whether binding was seen depends on the method and setting. Blank lines part the entries; values can stand above or below the binder they belong to.

Assays:
[1] = target: T1, rice phytochrome C (phyC), native (rice, Oryza sativa L. cv. Nipponbare (endogenous in seedlings)), Q10CQ8; test: SEC; protein extracts (1 mg total soluble protein) of etiolated seedlings of WT and phytochrome single and double mutants on Superdex 200 HR 10/30; 50 mM Na-phosphate pH 7.0, 150 mM NaCl, 4 C; fractions immunoblotted with anti-PHYA, anti-PHYB, anti-PHYC; column calibrated with molecular weight standards; conditions: remark: other sources report otherwise
T1 chain: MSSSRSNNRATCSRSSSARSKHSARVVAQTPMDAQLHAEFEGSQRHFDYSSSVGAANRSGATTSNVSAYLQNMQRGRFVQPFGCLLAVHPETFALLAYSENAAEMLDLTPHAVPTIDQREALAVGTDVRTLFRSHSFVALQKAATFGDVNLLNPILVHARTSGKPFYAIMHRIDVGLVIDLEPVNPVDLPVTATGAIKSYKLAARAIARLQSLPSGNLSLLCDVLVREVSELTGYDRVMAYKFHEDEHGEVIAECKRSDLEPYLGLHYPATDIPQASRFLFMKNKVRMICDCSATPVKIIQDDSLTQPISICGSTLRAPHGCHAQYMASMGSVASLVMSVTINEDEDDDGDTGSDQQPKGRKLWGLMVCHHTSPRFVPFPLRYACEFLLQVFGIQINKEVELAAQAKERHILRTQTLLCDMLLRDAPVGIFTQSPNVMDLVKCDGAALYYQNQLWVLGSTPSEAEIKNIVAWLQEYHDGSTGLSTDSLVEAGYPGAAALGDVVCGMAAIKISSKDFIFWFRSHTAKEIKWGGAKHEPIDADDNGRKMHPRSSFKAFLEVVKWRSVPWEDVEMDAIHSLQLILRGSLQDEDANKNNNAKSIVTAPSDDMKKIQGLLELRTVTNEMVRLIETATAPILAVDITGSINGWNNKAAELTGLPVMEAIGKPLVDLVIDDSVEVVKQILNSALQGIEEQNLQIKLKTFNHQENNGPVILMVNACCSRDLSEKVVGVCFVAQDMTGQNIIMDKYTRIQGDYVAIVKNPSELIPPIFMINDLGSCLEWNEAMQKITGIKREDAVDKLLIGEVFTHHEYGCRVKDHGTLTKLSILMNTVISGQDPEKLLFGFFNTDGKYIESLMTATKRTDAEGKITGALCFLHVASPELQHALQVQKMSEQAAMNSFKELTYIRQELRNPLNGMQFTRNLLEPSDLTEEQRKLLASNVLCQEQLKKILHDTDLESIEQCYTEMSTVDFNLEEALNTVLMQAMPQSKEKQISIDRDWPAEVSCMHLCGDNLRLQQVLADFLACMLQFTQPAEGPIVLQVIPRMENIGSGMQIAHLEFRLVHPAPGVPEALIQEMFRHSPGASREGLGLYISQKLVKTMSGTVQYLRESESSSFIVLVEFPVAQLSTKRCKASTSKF

[2] = target: T2, recombinant rice phyC with phytochromobilin (rice), Q10CQ8; test: SEC; recombinant phyA or phyC from E. coli fractionated on the same column; fractions #17-#24 immunoblotted with anti-His tag or anti-phytochrome antibodies; both purified; conditions: remark: other sources report otherwise
T2 chain: T1 chain

- binding [1]: no binding
B1: rice phytochrome C (phyC), native, Q10CQ8 1-1137 (protein)
chain: T1 chain

- binding [2]: no binding
B2: recombinant rice phyC with phytochromobilin, Q10CQ8 1-1137 (protein)
chain: T1 chain
modifications: here or on the partner: phytochromobilin as chromophore; phytochromobilin as chromophore
